# Laboratory results: PubChem BioAssay AID602313 (National Center for Advancing Translational Sciences (NCATS), 2012)
# The whole screen tested about 390,000 compounds, of which about 760 (0.19%) were called active. This list was built around the results that the source calls inconclusive (neither active nor inactive); the mix of calls is not that of the screen. Calls follow the shape of the dose curve; as a rule, active = well fitted inhibition curve with a large enough effect; inconclusive = small, poorly fitted or top-dose-only effect; inactive = flat fitted curve, though single readings scatter. A potency beside an inconclusive call is a rough fit, not a confirmed value.
# Assay: qHTS for Inhibitors of Vif-A3F Interactions: qHTS; also: nearly all actives have a fitted effect of over 65% in size
# Settings: HeLa A3F-eYFP + Vif (tagged APOBEC3F with the HIV-1 protein that degrades it), YFP fluorescence increase; series mostly up to 46.1 µM
# Outline: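 HeLa cells stably expressing A3F-eYFP plus Vif, plated and incubated overnight at 37 deg C, then exposed to compounds overnight at 37 deg C. Blocked degradation read as raised yellow fluorescence (Ex 488/Em 500-530).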
# Potency is read from the fitted curve at half-maximal effect.
row,SMILES,Potency
1,Cc1ccc2cc3c(NC(=O)c4ccco4)nn(C)c3nc2c1,"inconclusive: 11.2 µM [inhibitor, single point]"
2,C=CCC1(/C=N/O)CCOC(C)(C)C1 (stereo not drawn),"inconclusive: 17.8 µM [inhibitor, partial curve, poor fit]"
3,COc1ccc(-n2nc3c(N4CCC(C(=O)N5CCC(C)CC5)CC4)nnc(C)c3c2C)cc1,"inconclusive: 35.5 µM [inhibitor, single point]"
4,CC1=C(C#N)C(=O)NC(=O)/C1=C\c1ccc(-c2cc(C)c(C)cc2[N+](=O)[O-])o1,inactive
5,O=C(c1cccc([N+](=O)[O-])c1)N1CCN(c2ncccn2)CC1,"inconclusive: 20 µM [inhibitor, single point]"
6,O=S(=O)([N-]c1nc2ccccc2nc1-n1cc[n+](Cc2ccccc2)c1)c1ccc(Cl)cc1,"inconclusive: 31.6 µM [inhibitor, partial curve, poor fit]"
7,COc1ccc(C(=O)c2cn(CC(=O)Nc3cc(C)ccc3C)c3nc(C)ccc3c2=O)cc1,"inconclusive: 22.4 µM [inhibitor, single point]"
8,Cc1ccc(C(=O)N2CC=C(c3ccccc3)CC2)s1,"inconclusive: 35.5 µM [inhibitor, partial curve, poor fit]"
9,Cc1cc(N2CCC(C)CC2)nc2ccc(NC(=O)Cc3ccccc3Br)cc12,"inconclusive: 35.5 µM [inhibitor, single point]"
10,CN(C)C(=O)CCc1ccc2c3c([nH]c2c1)[C@]1(CCC2CCCC2)[C@@H](C(=O)N2CCOCC2)C[C@H](CC(=O)NCC24CC5CC(CC(C5)C2)C4)C(=O)N1CC3,"inconclusive: 31.6 µM [inhibitor, single point]"
11,CCN(CC)S(=O)(=O)c1cc(C(=O)Nc2ccc(Cl)cn2)ccc1C,inactive
12,CCCc1nc2ccc(NC(=O)c3cccs3)cc2c(=O)n1Cc1ccccc1Cl,inactive
13,Cc1ccc2c(CC(=O)N(Cc3ccc(N(C)C)cc3)Cc3ccco3)coc2c1C,inactive
14,CN1C(=O)/C(=C/c2ccc(OCc3ccc(F)cc3)cc2)NC1=S,"inconclusive: 35.5 µM [inhibitor, single point]"
15,COc1ccc(N2CCN(C(=O)CSc3ncccc3-c3nc4ccccc4[nH]3)CC2)cc1,"inconclusive: 35.5 µM [inhibitor, single point]"
16,O=[N+]([O-])C(=C1Nc2ccccc2N1)/C(Cl)=C(/Cl)Br,inactive
17,Cc1nnc(NC(=O)c2ccc(S(=O)(=O)N3CCc4ccccc4C3)cc2)o1,"inconclusive: 35.5 µM [inhibitor, single point]"
18,COC(=O)[C@]1(CC(C)C)N[C@H](c2ccc(SC3CCCCC3)c(OC)c2)[C@@H]2C(=O)N(C)C(=O)[C@@H]21,inactive
19,COc1ccc(/C=C/C(=O)NC(=S)N2CCN(C)CC2)cc1,"inconclusive: 35.5 µM [inhibitor, single point]"
20,O=c1cc(CN2CCCc3ccccc32)nc2sccn12,"inconclusive: 35.5 µM [inhibitor, single point]"
21,CCN1CCc2c(sc(NC(=O)c3ccc(S(=O)(=O)N4CCCC(C)C4)cc3)c2C(=O)OC)C1 (stereo not drawn),"inconclusive: 31.6 µM [inhibitor, single point]"

# Structures listed so far with nitrogen in an aromatic ring:
row,SMILES,Potency
1,Cc1ccc2cc3c(NC(=O)c4ccco4)nn(C)c3nc2c1,"inconclusive: 11.2 µM [inhibitor, single point]"
3,COc1ccc(-n2nc3c(N4CCC(C(=O)N5CCC(C)CC5)CC4)nnc(C)c3c2C)cc1,"inconclusive: 35.5 µM [inhibitor, single point]"
5,O=C(c1cccc([N+](=O)[O-])c1)N1CCN(c2ncccn2)CC1,"inconclusive: 20 µM [inhibitor, single point]"
6,O=S(=O)([N-]c1nc2ccccc2nc1-n1cc[n+](Cc2ccccc2)c1)c1ccc(Cl)cc1,"inconclusive: 31.6 µM [inhibitor, partial curve, poor fit]"
7,COc1ccc(C(=O)c2cn(CC(=O)Nc3cc(C)ccc3C)c3nc(C)ccc3c2=O)cc1,"inconclusive: 22.4 µM [inhibitor, single point]"
9,Cc1cc(N2CCC(C)CC2)nc2ccc(NC(=O)Cc3ccccc3Br)cc12,"inconclusive: 35.5 µM [inhibitor, single point]"
10,CN(C)C(=O)CCc1ccc2c3c([nH]c2c1)[C@]1(CCC2CCCC2)[C@@H](C(=O)N2CCOCC2)C[C@H](CC(=O)NCC24CC5CC(CC(C5)C2)C4)C(=O)N1CC3,"inconclusive: 31.6 µM [inhibitor, single point]"
11,CCN(CC)S(=O)(=O)c1cc(C(=O)Nc2ccc(Cl)cn2)ccc1C,inactive
12,CCCc1nc2ccc(NC(=O)c3cccs3)cc2c(=O)n1Cc1ccccc1Cl,inactive
15,COc1ccc(N2CCN(C(=O)CSc3ncccc3-c3nc4ccccc4[nH]3)CC2)cc1,"inconclusive: 35.5 µM [inhibitor, single point]"
17,Cc1nnc(NC(=O)c2ccc(S(=O)(=O)N3CCc4ccccc4C3)cc2)o1,"inconclusive: 35.5 µM [inhibitor, single point]"
20,O=c1cc(CN2CCCc3ccccc32)nc2sccn12,"inconclusive: 35.5 µM [inhibitor, single point]"

# In another format: 2 of the compounds above
row | SMILES | Potency
15 | COc1ccc(N2CCN(C(=O)CSc3ncccc3-c3nc4ccccc4[nH]3)CC2)cc1 | inconclusive: 35.5 µM [inhibitor, single point]
16 | O=[N+]([O-])C(=C1Nc2ccccc2N1)/C(Cl)=C(/Cl)Br | inactive

# Continuation.

row,SMILES,Potency
1,COc1ccc(Cl)cc1C(=O)O/N=C(\N)c1ccncc1,"inconclusive: 3.16 µM [inhibitor, partial curve, poor fit]"
2,CCOc1ccccc1NC(=O)Cn1nnc(C(=O)Nc2ccccc2Cl)c1N,"inconclusive: 35.5 µM [inhibitor, single point]"
3,Cc1ccc(OCC(=O)N/N=C\c2c(C)[nH]n(-c3ccccc3)c2=O)c([N+](=O)[O-])c1,"inconclusive: 5.01 µM [inhibitor, full curve, poor fit]"
4,COc1cccc(/C=c2\s/c(=C/C(=O)c3ccc(C)cc3)[nH]c2=O)c1OC,"inconclusive: 35.5 µM [inhibitor, single point]"
5,CC[n+]1c(/C=C/N(C)c2ccccc2)n(-c2ccccc2)c2ccc(-c3nc4ccccc4s3)cc21,"inconclusive: 28.2 µM [inhibitor, single point]"
6,Cc1ccc(CNC(=O)C2CN(S(C)(=O)=O)c3cc(Cl)ccc3O2)cc1 (stereo not drawn),"inconclusive: 20 µM [inhibitor, single point]"
7,CSCCC(NS(=O)(=O)c1ccc(C)cc1)C(=O)Nc1ccc(C)cn1 (stereo not drawn),"inconclusive: 3.98 µM [inhibitor, full curve, poor fit]"
8,Cc1nc2ccn(Cc3ccco3)c(=O)c2cc1C(=O)NCc1ccc(Cl)cc1,"inconclusive: 35.5 µM [inhibitor, single point]"
9,Cc1ccc(S(=O)(=O)NCCC(=O)O)cc1,"inconclusive: 35.5 µM [inhibitor, single point]"
10,COC(=O)c1cc(NC(=O)c2ccccc2)c(=O)oc1/C=C/Nc1ccc(Oc2ccccc2)cc1,active: 8.91 µM
11,CC(=O)c1cccc(S(=O)(=O)NCC(C)(C)N2CCOCC2)c1,"inconclusive: 12.6 µM [inhibitor, single point]"
12,O=C(N/N=C/c1cccnc1)c1ccccc1OCc1cccc(Br)c1,inactive
13,CN(C)c1ccc(C=C2SC(=S)N(Cc3ccco3)C2=O)cc1,"inconclusive: 14.1 µM [inhibitor, partial curve, poor fit]"
14,Cc1ccccc1N1C(=O)C(Cc2ccc(F)cc2)S/C1=C(\C#N)C(N)=O (stereo not drawn),"inconclusive: 22.4 µM [inhibitor, partial curve, poor fit]"
15,Cc1ccc(C(=O)NC(=S)Nc2ccc(N3CCOCC3)cc2)cc1,"inconclusive: 15.8 µM [inhibitor, single point]"
16,NC(=O)CC(NC(=O)c1ccc(Br)cc1)c1ccc(NC2CCCCCC2)c([N+](=O)[O-])c1 (stereo not drawn),"inconclusive: 35.5 µM [inhibitor, single point]"
17,COc1ccccc1NC(=S)NC(=O)/C=C/c1cccs1,inactive
18,CCc1cccc(C)c1NC(=O)c1cc(S(=O)(=O)N(Cc2ccc(C(=O)OC)cc2)Cc2ccc(OC)c(OC)c2)ccc1F,inactive
19,CCn1c(C)nnc1SCC(=O)Nc1ccc(N2CCOCC2)cc1,"inconclusive: 15.8 µM [inhibitor, partial curve, poor fit]"
20,O=c1c(/C=C(\O)c2ccc(F)cc2)nc2ccccc2n1-c1ccccc1,"inconclusive: 10 µM [inhibitor, partial curve, poor fit]"
21,COc1ccc(NC(=O)Cn2nnc(C(=O)NCc3cccs3)c2N)cc1,inactive

row,SMILES,Potency
1,O=S(=O)([N-]c1nc2ccccc2nc1-[n+]1ccc(Cc2ccccc2)cc1)c1ccc(Br)s1,"inconclusive: 7.08 µM [inhibitor, partial curve, poor fit]"
2,CC(=O)Oc1ccc(N2C(=O)C3C(C2=O)C(C(=O)c2ccc(Cl)cc2)N2CCCC32)cc1 (stereo not drawn),"inconclusive: 5.62 µM [inhibitor, full curve, poor fit]"
3,Cc1cccc(NC(=O)c2ccc(NCCc3ccccc3)c([N+](=O)[O-])c2)c1,"inconclusive: 17.8 µM [inhibitor, partial curve, poor fit]"
4,CCCC(O)c1nc2ccccc2n1CCCOc1ccc(Cl)cc1 (stereo not drawn),"inconclusive: 35.5 µM [inhibitor, single point]"
5,CCc1sc(C(=O)Nc2nc(-c3ccccn3)cs2)cc1C,"inconclusive: 2.82 µM [inhibitor, partial curve, poor fit]"
6,COc1cccc(NC(=S)N/N=C2\CC3CCC2(C)C3(C)C)c1 (stereo not drawn),"inconclusive: 5.62 µM [inhibitor, single point]"
7,CCCCOC(=O)c1ccc(NC(=O)CN2C(=O)NC3(CCCCCC3)C2=O)cc1,inactive
8,COc1ccc(-c2sc3cc4c(cc3c2-c2ccc(OCCN3CCCCC3)cc2)OCO4)cc1,inactive
9,O=C(Nc1cccc(F)c1)NC1(C(=O)NCC2CCCO2)CCCCC1 (stereo not drawn),"inconclusive: 35.5 µM [inhibitor, single point]"
10,COC(=O)c1sccc1NC(=S)OC,"inconclusive: 6.31 µM [inhibitor, single point]"
11,CCCCOc1ccc2c(c1)/C(=C(\C(Cl)=C(Cl)Cl)[N+](=O)[O-])N2,active: 22.4 µM
12,CN(C)S(=O)(=O)n1cc(/C=C(\NC(=O)c2ccccc2Cl)C(=O)N2CCOCC2)c2ccccc21,inactive
13,CCCCC(=O)Nc1ccc(NC(=O)c2cc(OC)c(OC)c(OC)c2)cn1,inactive
14,CC1=NN(C(=O)c2ccc(Cn3nc(C)cc3C)o2)C(O)(C(F)(F)F)C1 (stereo not drawn),inactive
15,CCN(CC)c1ccc2cc(C(=O)Nc3ccccn3)c(=O)oc2c1,"inconclusive: 22.4 µM [inhibitor, partial curve, poor fit]"
16,Fc1ccc(CNc2nc3ccccc3n3nnnc23)cc1,active: 7.94 µM
17,COc1ccc(OCC(=O)N2N=C(C)CC2(O)C(F)(F)F)cc1 (stereo not drawn),"inconclusive: 35.5 µM [inhibitor, single point]"
18,CCc1ccc(N2CC(C(=O)Nc3ccc(S(=O)(=O)N4CCCCC4)cc3)CC2=O)cc1 (stereo not drawn),"inconclusive: 22.4 µM [inhibitor, partial curve, poor fit]"
19,COc1cccc(C(=O)Nc2cccc(-c3ccc4nncn4n3)c2)c1OC,"inconclusive: 0.316 µM [inhibitor, full curve, poor fit]"
20,Cc1nn(-c2ccccc2)c2sc(C(=O)N(CC(=O)NC(C)(C)C)Cc3ccco3)cc12,inactive
21,O=C(Nc1nnc(-c2ccncc2)o1)c1ccccc1,"inconclusive: 35.5 µM [inhibitor, single point]"
